Experimental findings from patent US20260234233A1 (PETMEDIX, published 2026) are described below.

No constants are given. Whether binding was seen depends on the method and setting. Some results given as binding are weak or reduced against the parent protein; the word gives no strength. Sequences can lack the tags named with a protein.

The target in this assay is T1, Human NT-4 (human, UniProt P34130 81-210).
T1 construct: mature; also called hNT-4
T1 sequence (looked up): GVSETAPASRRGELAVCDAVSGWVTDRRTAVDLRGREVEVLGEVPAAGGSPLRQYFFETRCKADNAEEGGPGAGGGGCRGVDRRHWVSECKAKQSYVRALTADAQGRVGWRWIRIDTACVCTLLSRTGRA
In words: SPR, Biacore 8K, binder captured on Protein A chip, ligand as analyte.

B1: PetML119-E75T (Canine p75NTR ECD E75T-canine IgGB wt Fc) (Fc fusion)
chain: KEACPTGLYTHSGECCKACNLGEGVAQPCGANQTVCEPCLDSVTFSDVVSATEPCKPCTECVGLQSMSAPCVEATDAVCRCAYGYYQDETTGRCEACRVCEAGSGLVFSCQDRQNTVCEECPDGTYSDEANHVDPCLPCTVCEDTERQLRECTRWADAECEEIPGRGGGGRENGRVPRPPDCPKCPAPEMLGGPSVFIFPPKPKDTLLIARTPEVTCVVVDLDPEDPEVQISWFVDGKQMQTAKTQPREEQFNGTYRVVSVLPIGHQDWLKGKQFTCKVNNKALPSPIERTISKARGQAHQPSVYVLPPSREELSKNTVSLTCLIKDFFPPDIDVEWQSNGQQEPESKYRTTPPQLDEDGSYFLYSKLSVDKSRWQRGDTFICAVMHEALHNHYTQKSLSHSPGK
notes: The signal peptide (first 19 residues) is left out as for PetML119
Consider B1, for which the binding result is “binds”.
